{"source": "patent US9308253B2", "about": "“Cancer immunotherapy” (The Johns Hopkins University, priority 2011, dated 2016)", "key": {"B16 melanoma": {"tested_on": "B16 melanoma", "assay": "Tumor treatment assay, palpable B16 model", "type": "in vivo, C57BL/6 mice", "settings": "palpable B16, single subcutaneous treatment in contralateral limb"}, "TLR7/8": {"tested_on": "TLR7/8", "settings": "cited from earlier work"}}, "note": "For at least one compound, name, drawing or mass did not settle the structure."}
{"compound": "CCOCc1nc2c(N)nc3ccccc3c2n1CC(C)(C)O", "note": "[R848, resiquimod]", "values": [{"measurement": "tumor growth rate / in vivo anti-tumor response", "setting": "B16 melanoma", "result": "no in vivo anti-tumor effects"}, {"measurement": "cytokines response compared to imiquimod", "setting": "TLR7/8", "result": "50-100 fold"}, {"measurement": "type I IFN profile", "setting": "TLR7/8; versus imiquimod", "result": "significant improvements in increasing type I IFN profile over imiquimod"}]}
